Assay results reported in patent US10351561B2, “Pyrazolo[3,4-b]pyridines and imidazo[1,5-b]pyridazines as PDE1 inhibitors” (H. Lundbeck A/S, priority 2016, dated 2019).
pIC50: −log10 of the molar value. The match of structure and compound is tentative.

Amino acid sequences for entries named in this document (tags omitted).
UniProt P54750, whole entry: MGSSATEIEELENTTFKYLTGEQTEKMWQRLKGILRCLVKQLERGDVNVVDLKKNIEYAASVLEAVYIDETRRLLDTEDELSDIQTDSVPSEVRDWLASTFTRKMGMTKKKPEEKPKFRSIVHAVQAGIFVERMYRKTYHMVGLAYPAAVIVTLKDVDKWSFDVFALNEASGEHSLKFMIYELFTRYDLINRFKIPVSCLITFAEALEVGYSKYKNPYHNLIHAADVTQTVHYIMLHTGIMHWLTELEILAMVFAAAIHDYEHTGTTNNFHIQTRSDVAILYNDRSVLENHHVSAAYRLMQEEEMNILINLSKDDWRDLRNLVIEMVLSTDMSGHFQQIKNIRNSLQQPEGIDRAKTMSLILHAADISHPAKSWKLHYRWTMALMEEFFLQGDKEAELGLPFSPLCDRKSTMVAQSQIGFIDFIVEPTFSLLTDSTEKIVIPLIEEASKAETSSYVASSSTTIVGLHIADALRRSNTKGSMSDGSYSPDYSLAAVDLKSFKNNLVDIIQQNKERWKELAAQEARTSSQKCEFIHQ
UniProt Q01064, whole entry: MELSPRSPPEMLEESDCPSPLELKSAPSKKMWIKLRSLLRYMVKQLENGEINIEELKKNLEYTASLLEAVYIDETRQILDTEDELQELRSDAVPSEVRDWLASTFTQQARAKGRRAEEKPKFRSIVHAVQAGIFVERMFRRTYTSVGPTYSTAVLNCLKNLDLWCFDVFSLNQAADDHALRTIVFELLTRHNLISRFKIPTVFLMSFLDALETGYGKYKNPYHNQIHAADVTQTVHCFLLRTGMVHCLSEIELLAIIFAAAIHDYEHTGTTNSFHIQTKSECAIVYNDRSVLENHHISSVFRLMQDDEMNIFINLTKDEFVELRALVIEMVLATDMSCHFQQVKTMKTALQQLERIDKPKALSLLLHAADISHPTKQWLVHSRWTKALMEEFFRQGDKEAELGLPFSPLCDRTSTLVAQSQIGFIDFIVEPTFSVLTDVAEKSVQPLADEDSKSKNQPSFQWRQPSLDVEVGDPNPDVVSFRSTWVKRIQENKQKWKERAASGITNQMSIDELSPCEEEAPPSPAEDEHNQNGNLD
UniProt Q14123, whole entry: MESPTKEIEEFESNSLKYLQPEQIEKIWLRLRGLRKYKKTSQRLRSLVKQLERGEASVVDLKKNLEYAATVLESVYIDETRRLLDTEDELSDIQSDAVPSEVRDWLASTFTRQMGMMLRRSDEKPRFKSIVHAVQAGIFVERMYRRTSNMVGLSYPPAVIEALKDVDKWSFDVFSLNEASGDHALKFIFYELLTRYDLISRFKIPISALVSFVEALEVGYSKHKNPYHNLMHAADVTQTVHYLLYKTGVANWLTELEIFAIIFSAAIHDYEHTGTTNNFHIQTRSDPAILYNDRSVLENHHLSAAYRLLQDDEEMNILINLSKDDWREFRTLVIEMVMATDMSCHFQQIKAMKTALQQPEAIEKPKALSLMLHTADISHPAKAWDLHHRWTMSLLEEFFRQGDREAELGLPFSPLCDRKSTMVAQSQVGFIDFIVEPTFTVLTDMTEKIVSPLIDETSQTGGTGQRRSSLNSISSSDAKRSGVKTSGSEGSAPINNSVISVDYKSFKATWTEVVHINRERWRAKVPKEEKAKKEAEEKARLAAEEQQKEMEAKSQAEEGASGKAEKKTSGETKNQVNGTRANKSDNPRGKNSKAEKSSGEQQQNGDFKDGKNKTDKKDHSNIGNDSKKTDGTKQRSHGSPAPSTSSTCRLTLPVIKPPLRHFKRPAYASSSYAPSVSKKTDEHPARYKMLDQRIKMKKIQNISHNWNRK

Key:
[1] = target: PDE1A (Homo sapiens, UniProt P54750); assay: PDE1 inhibition assay (PDE1A), SPA with tritium labelled cAMP; conditions: read-out: PDE1A, IC50; 15 nM tritium labelled cAMP, 1 hr at room temperature, SPA beads
Experimental: (§1) PDE1A, PDE1B and PDE1C assays were performed as follows: the assays were performed in 60 μL samples containing a fixed amount of the PDE1 enzyme (sufficient to convert 20-25% of the cyclic nucleotide substrate), a buffer (50 mM HEPES (4-(2-hydroxyethyl)-1-piperazineethanesulfonic acid) pH 7.6; 10 mM MgCl2; 0.02% Tween20), 0.1 mg/ml BSA (bovine serum albumin), 15 nM tritium labelled cAMP and varying amounts of inhibitors. Reactions were initiated by addition of the cyclic nucleotide substrate, and reactions were allowed to proceed for 1 hr at room temperature before being terminated through mixing with 20 μL (0.2 mg) yttrium silicate SPA beads (PerkinElmer). The beads were allowed to settle for 1 hr in the dark before the plates were counted in a Wallac 1450 Microbeta counter. The measured signals were converted to activity relative to an uninhibited control (100%) and IC50 values were calculated using XIFit (model 205, IDBS).

[2] = target: PDE1B (Homo sapiens, UniProt Q01064); assay: PDE1 inhibition assay (PDE1B), SPA with tritium labelled cAMP; conditions: read-out: PDE1B, IC50; 15 nM tritium labelled cAMP, 1 hr at room temperature, SPA beads
[3] = target: PDE1C (Homo sapiens, UniProt Q14123); assay: PDE1 inhibition assay (PDE1C), SPA with tritium labelled cAMP; conditions: read-out: PDE1C, IC50; 15 nM tritium labelled cAMP, 1 hr at room temperature, SPA beads
Experimental: as §1

CCOc1ncccc1-c1cc(NCc2cn(C)cn2)c2c(C(C)C)nn(C)c2n1
pIC50 [1]: 8.14 | pIC50 [2]: 9.15 | pIC50 [3]: 7.92
